Results are given in words; binding and its absence hold for the method and conditions named. In cells and extracts the contact can be indirect. These calls come from enrichment with a bait or labelling near it, and not all partners need be listed.

Chains of the proteins cited; added tags and fusions are not shown.
UniProt P33176: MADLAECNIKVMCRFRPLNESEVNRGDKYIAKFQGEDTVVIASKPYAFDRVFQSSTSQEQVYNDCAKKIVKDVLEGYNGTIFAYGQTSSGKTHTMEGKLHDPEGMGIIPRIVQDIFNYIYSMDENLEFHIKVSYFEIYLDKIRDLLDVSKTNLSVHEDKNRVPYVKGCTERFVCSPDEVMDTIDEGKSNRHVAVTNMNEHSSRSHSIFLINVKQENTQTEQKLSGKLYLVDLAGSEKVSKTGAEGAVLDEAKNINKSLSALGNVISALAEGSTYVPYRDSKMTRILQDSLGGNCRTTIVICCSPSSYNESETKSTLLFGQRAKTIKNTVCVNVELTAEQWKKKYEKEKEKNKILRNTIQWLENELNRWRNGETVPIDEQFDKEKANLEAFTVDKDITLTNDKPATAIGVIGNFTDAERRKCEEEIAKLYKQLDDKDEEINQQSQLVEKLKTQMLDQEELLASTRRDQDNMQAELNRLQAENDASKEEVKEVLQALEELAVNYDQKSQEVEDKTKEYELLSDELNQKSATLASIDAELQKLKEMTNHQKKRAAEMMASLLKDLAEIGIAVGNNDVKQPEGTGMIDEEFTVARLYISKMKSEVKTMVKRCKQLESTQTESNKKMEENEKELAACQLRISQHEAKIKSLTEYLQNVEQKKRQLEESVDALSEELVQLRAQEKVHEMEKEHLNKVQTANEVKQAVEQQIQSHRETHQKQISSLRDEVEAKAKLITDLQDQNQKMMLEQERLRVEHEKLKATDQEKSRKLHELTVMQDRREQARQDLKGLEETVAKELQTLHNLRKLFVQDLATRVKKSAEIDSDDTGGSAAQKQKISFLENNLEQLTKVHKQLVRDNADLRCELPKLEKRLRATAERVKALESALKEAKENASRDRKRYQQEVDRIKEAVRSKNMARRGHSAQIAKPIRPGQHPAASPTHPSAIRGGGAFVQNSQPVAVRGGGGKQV

The target in assay [1] is full-length KIF5B-GFP with C-terminal Strep-tag (human) (UniProt P33176). The assay is described as follows: affinity purification with mass spectrometry + pull-down; as a2, but the ionic strength of the washing buffer was increased (high-salt wash buffer with 1.5 M NaCl).
For assay [2] the target is unchanged. The assay is described as follows: affinity purification with mass spectrometry + pull-down; Strep-tagged kinesin-GFP purified from HEK293T lysate on StrepTactin beads, washed with a low-ionic-strength buffer; copurifying endogenous proteins found by mass spectrometry and Western blotting. A general note: A western blot detects proteins with antibodies after separation by electrophoresis.

B1: MAP7D3, endogenous in HEK293T cells (protein, UniProt Q8IWC1 1-876)
chain: MMADGAAAGAGGSPSLRELRARMVAAANEIAKERRKQDVVNRVATHSSNIRSTFKPVIDGSMLKNDIKQRLARERREEKRRQQDANKETQLLEKERKTKLQYEKQMEERQRKLKERKEKEEQRRIAAEEKRHQKDEAQKEKFTAILYRTLERRRLADDYQQKRWSWGGSAMANSESKTANKRSASTEKLEQGTSALIRQMPLSSAGLQNSVAKRKTDKERSSSLNRRDSNLHSSTDKEQAERKPRVTGVTNYVMQYVTVPLRKCTSDELRAVMFPMSTMKIPPQTKVEESPLEKVETPPKASVDAPPQVNVEVFCNTSMEASPKAGVGMAPEVSTDSFPVVSVDVSPVVSTYDSEMSMDASPELSIEALPKVDLETVPKVSIVASPEASLEAPPEVSLEALPEVSVEAAPEGSLEAPPKGSAEVAPKESVKGSPKESMEASPEAMVKASPKTSLEASMEASPKAKARDAPKKSEMDKQALIPIAKKRLSSYTECYKWSSSPENACGLPSPISTNRQIQKNCPPSPLPLISKQSPQTSFPYKIMPIQHTLSVQSASSTVKKKKETVSKTTNRCEALSQRHMIYEESGNKSTAGIMNAEAATKILTELRRLAREQREKEEEERQREEMQQRVIKKSKDMAKEAVGGQAEDHLKLKDGQQQNETKKKKGWLDQEDQEAPLQKGDAKIKAQEEADKRKKEHERIMLQNLQERLERKKRIEEIMKRTRKTDVNASKVTETSSHDIYEEAEADNEESDKDSLNEMFPSAILNGTGSPTKFKMPFNNAKKMTHKLVFLEDGTSQVRKEPKTYFNGDLKNFRQKSMKDTSIQEVVSRPSSKRMTSHTTKTRKADETNTTSRSSAQTKSEGFHDILPKSSDTFRQ
On to B1, for which the binding result in assay [1] is reported as “binds weakly”; in assay [2] it was “binds”.
